Primary screen of a compound library

Source: ChEMBL document CHEMBL3988442, “University of Dundee, Small-Polar-MMV Screening Library” (2021).

Mtb growth Cornell: 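Whole-cell assay for inhibitors of Mycobacterium tuberculosis growth, labelled Cornell in the record; the read-out is not stated. The concentration is filed as 10 mM, unlikely as a test dose, so the dose is not known. The record gives no direction; compounds strong in two other growth screens of this library score well above the rest, so higher reads as stronger inhibition. Size under these conditions: about 53,000 compounds, about 900 of them at 50% or above in at least one test.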
Mtb heat-shock: 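Assay on Mycobacterium tuberculosis, filed only as a heat shock assay from Cornell; the read-out is not stated. The concentration is filed as 10 mM, unlikely as a test dose, so the dose is not known. Higher reads as stronger inhibition (inferred: compounds with an IC50 in retests scored well above the rest). About 69,000 compounds were tested under these conditions; 1.4% (about 930) showed 50% or more at least once.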

Results are given as percent effect. The controls that fix the scale are not given in the record; negative values are as filed. This is an unselected part of the compounds tested.

compound: COc1cc(C(C)NCc2ncccc2C)ccc1SC(F)F (stereo not drawn)
Mtb growth Cornell: -20.59
Mtb heat-shock: 48.69

compound: C[S+](C)[c-]1c(=O)[nH]c(=O)n(CCc2ccc(F)cc2)c1=O
Mtb growth Cornell: -5.467
Mtb heat-shock: -3.56

compound: CC(=O)N1CCCN(C(C(=O)O)c2ccc(C)cc2C)CC1 (stereo not drawn)
Mtb growth Cornell: 5.922
Mtb heat-shock: 3.822

compound: [H][C@]12CC[C@]([H])(CN(C(=O)Nc3ccccc3C(F)(F)F)C1)N(C)C2=O
Mtb heat-shock: -104.1

compound: CC1CCCCN1CCNC(=O)c1ccn(-c2ccccc2)n1 (stereo not drawn)
Mtb heat-shock: -20.32

compound: Cc1nc(C2(NCC(=O)NC(=O)NCC(F)(F)F)CCCCC2)no1
Mtb growth Cornell: -4.285
Mtb heat-shock: 8.856

compound: O=C(O)C(F)(F)F.O=C(c1cccs1)N1CCC[C@]2(C[C@@H](OCc3ccncc3)CO2)C1
Mtb growth Cornell: 23.99
Mtb heat-shock: -12.06

compound: Cc1cccc(-n2nc(CC(C)C)nc2CCC(=O)N(C)C)c1
Mtb growth Cornell: 9.065
Mtb heat-shock: 2.41

compound: CC(C)(C)c1cn2nc(N3CCCC3Cn3cncn3)sc2n1 (stereo not drawn)
Mtb growth Cornell: 13.21
Mtb heat-shock: 34.85

compound: CN1C(=O)CC(c2cnn(C)c2)C12CCN(C(=O)C1CC=CC1)CC2 (stereo not drawn)
Mtb growth Cornell: 1.374
Mtb heat-shock: 0.4267

compound: Cc1cccc(OCC(=O)NS(=O)(=O)Cc2ccccc2)c1
Mtb growth Cornell: -28.87
Mtb heat-shock: -35.45

compound: Cc1nc(S(=O)(=O)N2CCSCC2)cn1C
Mtb growth Cornell: 7.209
Mtb heat-shock: -10.87

compound: Cc1noc(C)c1CN(C)Cn1c(=O)oc2ccccc21
Mtb growth Cornell: -22.88
Mtb heat-shock: -12.14

compound: COc1ccc(OCCNC(=O)c2ccc3c(=O)[nH][nH]c(=O)c3c2)cc1
Mtb growth Cornell: -1.002
Mtb heat-shock: -20.5

compound: CCc1nc2ccccc2n1C(CC)C(=O)N(C)Cc1noc(C)n1 (stereo not drawn)
Mtb growth Cornell: -11.11
Mtb heat-shock: -13.17

compound: O=C(O)C(F)(F)F.[H][C@@]12CCC(=O)N(c3ccccc3)[C@]1([H])CCN2Cc1cnn(C)c1
Mtb growth Cornell: 25.93
Mtb heat-shock: -7.417

compound: CC(O)CN1CCC(CNCc2cccc(Cl)c2)CC1 (stereo not drawn)
Mtb heat-shock: -1.037

compound: CC(C(=O)N1CCCN(Cc2ccc(C#N)cc2)CC1)n1cccn1 (stereo not drawn)
Mtb heat-shock: 15.65

compound: O=C(O)C(F)(F)F.[H][C@@]12CCN(S(C)(=O)=O)[C@]1([H])CC[C@@H](C(=O)NCCc1ccncc1)O2
Mtb growth Cornell: -4.482
Mtb heat-shock: -1.051

compound: CC(C)(C)n1ncc2c1NC(=O)CC2c1ccccc1 (stereo not drawn)
Mtb growth Cornell: 8.502
Mtb heat-shock: 13.89

compound: Cc1nc(CN2CCCC(NCCCc3ccccc3)C2)no1 (stereo not drawn)
Mtb heat-shock: -22.52

compound: CC(O)(CNc1ccc(Cl)c(C#N)n1)c1ccccc1 (stereo not drawn)
Mtb growth Cornell: 21.26
Mtb heat-shock: -2.642

compound: FC(F)(F)c1cccc(CNc2nccc(C(F)(F)F)n2)c1
Mtb heat-shock: -1.486

compound: CN(C(=O)c1ccnn1C)[C@@H]1CCC[C@@H](Oc2ccccc2)[C@@H]1O
Mtb growth Cornell: -4.472
Mtb heat-shock: -4.554

compound: COc1ccc(CCN(C)C(C(=O)O)c2ccc(F)c(C)c2)cc1OC (stereo not drawn)
Mtb growth Cornell: -20.41
Mtb heat-shock: -16.96

compound: Cn1ncc2c1NC(=O)CC2c1ccc(F)cc1 (stereo not drawn)
Mtb growth Cornell: -0.8051
Mtb heat-shock: 9.683

compound: O=C(O)c1ccccc1-c1ccc(CN2CCC(CO)C2)cc1 (stereo not drawn)
Mtb growth Cornell: 13.93
Mtb heat-shock: 1.86

For reference, 3 entries once more:

{"compound": "Cc1nc(C2(NCC(=O)NC(=O)NCC(F)(F)F)CCCCC2)no1", "Mtb growth Cornell": -4.285, "Mtb heat-shock": 8.856}
{"compound": "CC(O)CN1CCC(CNCc2cccc(Cl)c2)CC1", "stereo": "stereo not drawn", "Mtb heat-shock": -1.037}
{"compound": "O=C(O)C(F)(F)F.[H][C@@]12CCN(S(C)(=O)=O)[C@]1([H])CC[C@@H](C(=O)NCCc1ccncc1)O2", "Mtb growth Cornell": -4.482, "Mtb heat-shock": -1.051}